{"source": "PubChem BioAssay AID652259 (Drosophila RNAi Screening Center, 2013)", "test": "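Identify new Wingless signalling regulators in fly cells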 (primary screen)", "cells": "Drosophila clone 8 imaginal disc epithelial cells", "reagent": "long dsRNA against Drosophila genes", "treatment": "pathway stimulated by co-transfected Wingless expression plasmid", "detection": "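Firefly luciferase from a tcf-site Wingless reporter, measured alongside co-transfected Renilla luciferase that tracks transfection; pathway stimulated by a Wingless plasmid; the firefly-to-Renilla ratio is not deposited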", "scale": "firefly reporter light: higher = more Wg reporter light, before normalisation; Renilla control light: higher = more transfected or surviving cells", "active means": "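Strong candidates differ from their plate mean by at least two out of four per-plate statistical tests; weak candidates meet just one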", "meaning of the calls": "active = candidate regulator (raises or lowers reporter); inactive = not a candidate", "note": "In all, the deposit lists about 22,000 reagents; shown is a random part of those that have a named target and a result. Of all reagents, 233 (1.1%) were called active. 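Light values are raw, unnormalised plate reads; the ratio scores behind the reporter calls were not deposited.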 Reagents against one gene are numbered here. A plus sign joins genes that one reagent is predicted to hit. Not given: the amount of reagent, the time to read-out, the dose of the treatment."}
{"Gene": "BomBc1", "dsRNA no.": 1, "firefly reporter light, replicate 1": 7856, "Renilla control light, replicate 1": 2469, "Outcome": "inactive"}
{"Gene": "per", "dsRNA no.": 1, "firefly reporter light, replicate 1": 13619, "Renilla control light, replicate 1": 9463, "Outcome": "inactive"}
{"Gene": "CG42272", "dsRNA no.": 1, "firefly reporter light, replicate 1": 3104, "Renilla control light, replicate 1": 1408, "Outcome": "inactive"}
{"Gene": "CG42272", "dsRNA no.": 2, "firefly reporter light, replicate 1": 9.92e5, "firefly reporter light, replicate 2": 9.77e5, "Renilla control light, replicate 1": 94604, "Renilla control light, replicate 2": 57304, "Outcome": "inactive"}
{"Gene": "l(2)03659", "dsRNA no.": 1, "firefly reporter light, replicate 1": 3072, "firefly reporter light, replicate 2": 8442, "Renilla control light, replicate 1": 1027, "Renilla control light, replicate 2": 3158, "Outcome": "inactive"}
{"Gene": "l(2)03659", "dsRNA no.": 2, "firefly reporter light, replicate 1": 2432, "firefly reporter light, replicate 2": 7170, "Renilla control light, replicate 1": 651, "Renilla control light, replicate 2": 2396, "Outcome": "inactive"}
{"Gene": "CG42818", "dsRNA no.": 1, "firefly reporter light, replicate 1": 3736, "firefly reporter light, replicate 2": 6530, "Renilla control light, replicate 1": 1799, "Renilla control light, replicate 2": 3035, "Outcome": "inactive"}
{"Gene": "antr", "dsRNA no.": 1, "firefly reporter light, replicate 1": 5.62e5, "firefly reporter light, replicate 2": 5.82e5, "Renilla control light, replicate 1": 2.57e5, "Renilla control light, replicate 2": 2.17e5, "Outcome": "inactive"}
{"Gene": "trbl", "dsRNA no.": 1, "firefly reporter light, replicate 1": 12704, "Renilla control light, replicate 1": 4305, "Outcome": "inactive"}
{"Gene": "CG13044", "dsRNA no.": 1, "firefly reporter light, replicate 1": 7763, "Renilla control light, replicate 1": 3969, "Outcome": "inactive"}
{"Gene": "scramb2", "dsRNA no.": 1, "firefly reporter light, replicate 1": 8416, "Renilla control light, replicate 1": 2512, "Outcome": "inactive"}
{"Gene": "Arp2", "dsRNA no.": 1, "firefly reporter light, replicate 1": 17208, "Renilla control light, replicate 1": 7354, "Outcome": "inactive"}
{"Gene": "Bacc", "dsRNA no.": 1, "firefly reporter light, replicate 1": 3184, "firefly reporter light, replicate 2": 6050, "Renilla control light, replicate 1": 1256, "Renilla control light, replicate 2": 2054, "Outcome": "inactive"}
{"Gene": "Ns3", "dsRNA no.": 1, "firefly reporter light, replicate 1": 5016, "firefly reporter light, replicate 2": 9925, "Renilla control light, replicate 1": 1792, "Renilla control light, replicate 2": 3573, "Outcome": "inactive"}
{"Gene": "CG42650", "dsRNA no.": 1, "firefly reporter light, replicate 1": 3255, "Renilla control light, replicate 1": 1528, "Outcome": "inactive"}
{"Gene": "slp2", "dsRNA no.": 1, "firefly reporter light, replicate 1": 3051, "firefly reporter light, replicate 2": 8576, "Renilla control light, replicate 1": 941, "Renilla control light, replicate 2": 3344, "Outcome": "inactive"}
{"Gene": "CG5421", "dsRNA no.": 1, "firefly reporter light, replicate 1": 3113, "firefly reporter light, replicate 2": 7202, "Renilla control light, replicate 1": 1256, "Renilla control light, replicate 2": 3080, "Outcome": "inactive"}
{"Gene": "CG13539", "dsRNA no.": 1, "firefly reporter light, replicate 1": 2037, "firefly reporter light, replicate 2": 6986, "Renilla control light, replicate 1": 228, "Renilla control light, replicate 2": 2148, "Outcome": "inactive"}
{"Gene": "Cda4", "dsRNA no.": 1, "firefly reporter light, replicate 1": 14429, "Renilla control light, replicate 1": 10998, "Outcome": "inactive"}
{"Gene": "Cda4", "dsRNA no.": 2, "firefly reporter light, replicate 1": 16160, "Renilla control light, replicate 1": 11042, "Outcome": "inactive"}
{"Gene": "Cda4", "dsRNA no.": 3, "firefly reporter light, replicate 1": 15776, "Renilla control light, replicate 1": 9510, "Outcome": "inactive"}
{"Gene": "ThrRS", "dsRNA no.": 1, "firefly reporter light, replicate 1": 6976, "Renilla control light, replicate 1": 2195, "Outcome": "inactive"}
{"Gene": "Ranbp16 + Lcch3", "dsRNA no.": 1, "firefly reporter light, replicate 1": 3062, "firefly reporter light, replicate 2": 12173, "Renilla control light, replicate 1": 967, "Renilla control light, replicate 2": 2451, "Outcome": "inactive"}
{"Gene": "CG10195", "dsRNA no.": 1, "firefly reporter light, replicate 1": 3440, "firefly reporter light, replicate 2": 8532, "Renilla control light, replicate 1": 962, "Renilla control light, replicate 2": 3467, "Outcome": "inactive"}
{"Gene": "CG3955", "dsRNA no.": 1, "firefly reporter light, replicate 1": 13099, "Renilla control light, replicate 1": 3783, "Outcome": "inactive"}

Ordered by “Renilla control light, replicate 2” (low to high): some entries from above
{"Gene": "CG42818", "dsRNA no.": 1, "firefly reporter light, replicate 1": 3736, "firefly reporter light, replicate 2": 6530, "Renilla control light, replicate 1": 1799, "Renilla control light, replicate 2": 3035, "Outcome": "inactive"}
{"Gene": "antr", "dsRNA no.": 1, "firefly reporter light, replicate 1": 5.62e5, "firefly reporter light, replicate 2": 5.82e5, "Renilla control light, replicate 1": 2.57e5, "Renilla control light, replicate 2": 2.17e5, "Outcome": "inactive"}
